# Source: PubChem BioAssay AID2685 (National Center for Advancing Translational Sciences (NCATS), 2010)
# This is one part of the list. The main result of the screen is listed elsewhere. These columns were measured beside it and carry no call. The list favours compounds with an active or inconclusive main result. Words in brackets tell the shape of the fitted curve; partial curves, single points and poor fits give uncertain potencies.
# Experiment: qHTS Assay for Lipid Storage Modulators in Drosophila S3 Cells;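 as to cell number change: cells counted by Cell Tracker Red CMTPX staining in the red channel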
# Settings: BODIPY lipid droplet fluorescence, 18-24 h; for cell number change: measured here: cell count max response, cells fed with added oleic acid
# Outline: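 Drosophila S3 cells got compounds at several concentrations plus oleic acid (400 uM solution). Laser-scanning cytometry with 488 nm excitation read lipid droplets at 500-530 nm and cells at 575-640 nm. Percent activity was relative to 20 uM Triacsin C.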
# [1] = measured here: cell number channel AC50, cells fed with added oleic acid
# [2] = measured here: lipid fluorescence (Fed channel) AC50, cells fed with added oleic acid
Structure (SMILES),cell number change [%],AC50 [1],AC50 [2]
COCC1CCCN(C(=O)c2ccc3nc(Cc4cccc(Cl)c4)oc3c2)C1 (centres undefined),-2.05,–,–
CCOC(=O)Nc1ccc2c(CN3C(=O)NC(CC)(CC)C3=O)cc(=O)oc2c1,-48.4,"16.4 µM [falling, single point]","3.26 µM [rising, partial curve]"
CCOC(=O)c1cc(OC(=O)c2cccs2)n(-c2ccccc2)n1,1.56,–,"23.1 µM [rising, single point]"
O=C(CSc1ccccc1)Nc1cc(S(=O)(=O)N2CCOCC2)ccc1N1CCOCC1,–,"3.26 µM [rising, single point]",–
Cc1cc(C)n2nc(SCC(=O)N(C)c3c(N)n(Cc4ccccc4)c(=O)[nH]c3=O)nc2n1,–,"6.51 µM [rising, single point]",–
Cc1cccc(C(=O)CC(=O)c2cc(Cl)ccc2O)c1,13.9,"6.51 µM [rising, single point]","14.6 µM [rising, partial curve]"
CCOC(=O)c1oc2nc(C(C)C)c3c(c2c1N)CC(C)(C)OC3,-7.84,–,"9.2 µM [rising, partial curve, poor fit]"
CCCCC1CCC(C(=O)OCC(=O)N(CCOC)c2c(N)n(Cc3ccccc3)c(=O)[nH]c2=O)CC1 (centres undefined),-27.6,"4.61 µM [falling, full curve, poor fit]",–
O=C(CSc1nncs1)Nc1ccc(S(=O)(=O)N2CCCC2)cc1,5.05,–,–
O=C(COC(=O)c1ccc(S(=O)(=O)N2CCCC2)cc1)Nc1ccc(Cl)cc1,-32.6,"3.66 µM [falling, full curve, poor fit]","4.11 µM [falling, full curve, poor fit]"
CCOC(=O)NNC1CC(=O)N(c2ccc(OC)cc2)C1=O (centres undefined),146,"0.411 µM [rising, single point]",–
COc1ccc(/C=C/C(=O)N(Cc2cccs2)C2CCS(=O)(=O)C2)cc1 (centres undefined),-12.8,–,–
Cc1oc2c(C)c3oc(=O)c(CCC(=O)NCCCN4CCCC4=O)c(C)c3cc2c1C,6.47,–,–
CC1CC1C(=O)OCC(=O)Nc1ccc(N=Nc2ccccc2)cc1 (centres undefined),3.02,–,"29.1 µM [falling, single point]"
C#CCn1c(=NC(=O)c2cc(-c3cccs3)nc3ccccc23)sc2cc(S(N)(=O)=O)ccc21,-8.7,–,"0.517 µM [rising, full curve]"
Cn1c(=O)c2c(nc(N/N=C/c3ccc(OC(=O)c4ccco4)cc3)n2Cc2ccc(F)cc2)n(C)c1=O,-29.8,–,"13 µM [falling, partial curve]"

# A second format for some results above.
Structure (SMILES)	cell number change [%]	AC50 [1]	AC50 [2]
COc1ccc(/C=C/C(=O)N(Cc2cccs2)C2CCS(=O)(=O)C2)cc1 (centres undefined)	-12.8	–	–
Cc1oc2c(C)c3oc(=O)c(CCC(=O)NCCCN4CCCC4=O)c(C)c3cc2c1C	6.47	–	–
